Assay results as given in patent US9833520B2, “Labeled, non-peptidic, multivalent integrin antagonist compounds; methods for synthesis and uses thereof” (The Methodist Hospital Research Institute, priority 2011, dated 2017).

How the values were obtained:
B16F10 cells = assay: In vitro cytotoxicity (MTT) assay, B16F10; conditions: B16F10, 10 μg/mL, 1-day exposure; listed as IA-trimer
purified human αvβ3 = purified human αvβ3 (Homo sapiens, UniProt P05106+P06756); assay: ELISA: competitive inhibition of biotinylated vitronectin binding to immobilized purified integrin αvβ3; conditions: compared to monovalent IA

Compound	cell viability (B16F10 cells)	improvement in receptor affinity (IC50) over parent compound IA (purified human αvβ3)
O=C(NCCS(=O)(=O)N[C@@H](CNC(=O)c1ccc(OCCNC2=NCCCN2)cc1)C(=O)O)OCCN(CCOC(=O)NCCS(=O)(=O)N[C@@H](CNC(=O)c1ccc(OCCNC2=NCCCN2)cc1)C(=O)O)CCOC(=O)NCCS(=O)(=O)N[C@@H](CNC(=O)c1ccc(OCCNC2=NCCCN2)cc1)C(=O)O [IA trimer]	About 90% and Less than 90%	–
NC(CCCCCC(=O)NCCS(=O)(=O)N[C@@H](CNC(=O)c1ccc(OCCNC2=NCCCN2)cc1)C(=O)O)C(=O)NCCS(=O)(=O)N[C@@H](CNC(=O)c1ccc(OCCNC2=NCCCN2)cc1)C(=O)O (some centres unmarked) [bivalent IA]	–	over 50 fold and 50 fold

A number of entries come with more than one value. The other results are left out here. The source may hold further records. Results that share an entry differ for a reason that is not stated; dose, time, organism, isomer or construct need not be as stated for each record.
